Test results published in patent US20240226308A1, “DOSING REGIMENS OF PEPTIDE CONJUGATES OF TOPOISOMERASE I INHIBITORS” (CYBREXA 2, INC., priority 2021, published 2024).
For at least one compound, name, drawing or mass did not settle the structure.

Test system: advanced or metastatic refractory solid tumors
Assay: Phase 1/2 study of Compound 1: anti-tumor activity (RECIST 1.1)
Type: in vivo, human
Settings: for Best Response: prior TOP1 inhibitor Yes
[1] = Patient 2-6 (Cohort B2), breast cancer, four cycles
[2] = Patient 2-6 (Cohort B2), breast cancer, two cycles
[3] = one patient with ovarian cancer, Schedule A, dose reduced for Cycle 2

CC[C@@]1(O)C(=O)OCc2c1cc1n(c2=O)Cc2c-1nc1cc(F)c(C)c3c1c2[C@@H](NC(=O)O[C@H]1CCCC[C@@H]1SSC[C@H](NC(=O)[C@H](Cc1c[nH]c2ccccc12)NC(=O)[C@H](CC(C)C)NC(=O)[C@H](CC(C)C)NC(=O)[C@H](CC(=O)O)NC(=O)[C@H](CC(C)C)NC(=O)[C@H](CC(C)C)NC(=O)[C@H](CC(C)C)NC(=O)[C@@H](NC(=O)[C@H](CC(=O)O)NC(=O)[C@@H](NC(=O)[C@@H]1CCCN1C(=O)[C@H](Cc1ccccc1)NC(=O)[C@H](CC(C)C)NC(=O)[C@H](CC(C)C)NC(=O)[C@H](CC(=O)O)NC(=O)[C@H](CC(C)C)NC(=O)[C@H](Cc1ccc(O)cc1)NC(=O)[C@H](C)NC(=O)[C@H](CCCNC(=N)N)NC(=O)[C@H](Cc1c[nH]c2ccccc12)NC(=O)[C@@H]1CCCN1C(=O)[C@H](CC(N)=O)NC(=O)[C@H](CCC(N)=O)NC(=O)[C@H](CC(=O)O)NC(=O)[C@H](CC(=O)O)NC(=O)[C@H](C)N)[C@@H](C)O)[C@@H](C)O)C(=O)NCC(=O)O)CC3 [Compound 1]
reduction in target lesions (Patient 1-9 (Cohort B3), colorectal cancer, prior FOLFIRI+bevacizumab, two cycles, investigator reported): 16% | bowel symptoms (Patient 1-9 (Cohort B3), colorectal cancer, two cycles): resolution of bowel symptoms | disease status after 4 cycles (Patient 2-5 (Cohort B2), breast cancer, prior trastuzumab deruxtecan): stable diseasc | decrease of target lesions from pretreatment [1]: 29.1% | non-target lesions [1]: further decrease in non-target lesions | decrease (from pretreatment) in the chest wall lesion [2]: 20% | non-target lesions [2]: decrease in numerous non-target lesions | pain from chest wall lesion [2]: resolution of pain | response after two cycles (Patient 2-9 (Cohort C1), breast cancer, multiple lines of prior therapy): partial response | disease status after two cycles (Patient 2-11 (Cohort B3), ovarian cancer, multiple lines of prior therapy): stable disease | CA-125 biomarker levels (Patient 2-11 (Cohort B3), ovarian cancer, two cycles): decreasing | carcinoembryonic antigen (CEA) (Patient 3-1 (Cohort B3), colorectal cancer, two cycles): decreasing | disease status after two cycles (Patient 3-1 (Cohort B3), colorectal cancer, two prior lines of irinotecan-containing regimens): stable disease | Best Response (Subject 1-5, Ovarian, Cohort B1 20 mg/m^2, Schedule B: Daily x 3 Every 3 Weeks): PD (PD = Progressive Disease) | Best Response (Subject 2-1, Pancreas, Cohort C1 20 mg/m^2, Schedule C: Once Weekly): PD (PD = Progressive Disease) | Best Response, % decrease (Subject 1-9, Colorectal, Cohort B3 45 mg/m^2, Schedule B: Daily x 3 Every 3 Weeks): (16% | Best Response, % decrease (Subject 2-4, Appendiceal, Cohort B2 30 mg/m^2, Schedule B: Daily x 3 Every 3 Weeks): (4% | Best Response, % decrease (Subject 2-6, Breast, Cohort B2 30 mg/m^2, Schedule B: Daily x 3 Every 3 Weeks): (29.1% | Best Response, % decrease (Subject 2-9, Breast, Cohort C1 20 mg/m^2, Schedule C: Once Weekly): (39.7% | Best Response, % increase (Subject 1-6, Testicular, Cohort B1 20 mg/m^2, Schedule B: Daily x 3 Every 3 Weeks): (10% | Best Response, % increase (Subject 2-5, Breast, Cohort B2 30 mg/m^2, Schedule B: Daily x 3 Every 3 Weeks): (9.6% | response noted after Cycle 1 (one patient with ovarian cancer, Schedule A): partial response | CA-125 biomarker levels [3]: normalization | response at restaging, Cycle 2 [3]: complete response
